We go through 1 molecule from paper PMC6447525.

The test concerns the target T1, NESG1 (cilia and flagella-associated protein 45), MYC-tagged (human) (UniProt Q9UL16).
T1 sequence: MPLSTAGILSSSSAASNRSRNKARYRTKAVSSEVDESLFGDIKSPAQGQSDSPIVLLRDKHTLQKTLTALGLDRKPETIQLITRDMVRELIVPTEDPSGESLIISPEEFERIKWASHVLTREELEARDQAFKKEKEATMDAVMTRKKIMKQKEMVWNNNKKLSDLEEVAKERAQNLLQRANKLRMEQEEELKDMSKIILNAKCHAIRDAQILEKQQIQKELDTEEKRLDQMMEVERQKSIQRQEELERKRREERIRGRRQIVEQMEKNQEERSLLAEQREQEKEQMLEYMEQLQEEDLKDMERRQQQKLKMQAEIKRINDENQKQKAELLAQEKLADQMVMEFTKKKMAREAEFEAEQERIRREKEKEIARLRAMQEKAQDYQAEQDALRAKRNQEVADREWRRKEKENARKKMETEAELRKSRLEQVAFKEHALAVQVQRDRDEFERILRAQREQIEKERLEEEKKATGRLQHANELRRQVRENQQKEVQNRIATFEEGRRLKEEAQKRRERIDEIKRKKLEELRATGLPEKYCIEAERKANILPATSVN
As to the kind of experiment: co-IP; cells co-transfected with HA-VPS33B and MYC-NESG1 plasmids; Pierce Co-Immunoprecipitation Kit; 3000 ug total protein in 500 uL supernatant with 10 ug anti-HA, anti-MYC or anti-IgG antibodies, 12 h, 4 °C; western blot; anti-IgG as negative control.

No constants are given. Whether binding was seen depends on the method and setting. Binding seen in cells or lysates may run through a third protein. Some results given as binding are weak or reduced against the parent protein; the word gives no strength. Sequences can lack the tags named with a protein.

B1: vacuolar protein sorting 33B (VPS33B), HA-tagged (protein, UniProt Q9H267 1-617)
chain: MAFPHRPDAPELPDFSMLKRLARDQLIYLLEQLPGKKDLFIEADLMSPLDRIANVSILKQHEVDKLYKVENKPALSSNEQLCFLVRPRIKNMRYIASLVNADKLAGRTRKYKVIFSPQKFYACEMVLEEEGIYGDVSCDEWAFSLLPLDVDLLSMELPEFFRDYFLEGDQRWINTVAQALHLLSTLYGPFPNCYGIGRCAKMAYELWRNLEEEEDGETKGRRPEIGHIFLLDRDVDFVTALCSQVVYEGLVDDTFRIKCGSVDFGPEVTSSDKSLKVLLNAEDKVFNEIRNEHFSNVFGFLSQKARNLQAQYDRRRGMDIKQMKNFVSQELKGLKQEHRLLSLHIGACESIMKKKTKQDFQELIKTEHALLEGFNIRESTSYIEEHIDRQVSPIESLRLMCLLSITENGLIPKDYRSLKTQYLQSYGPEHLLTFSNLRRAGLLTEQAPGDTLTAVESKVSKLVTDKAAGKITDAFSSLAKRSNFRAISKKLNLIPRVDGEYDLKVPRDMAYVFGGAYVPLSCRIIEQVLERRSWQGLDEVVRLLNCSDFAFTDMTKEDKASSESLRLILVVFLGGCTFSEISALRFLGREKGYRFIFLTTAVTNSARLMEAMSEVKA
B1: the binding entry was “binds”.
